{"source": "patent US20100021918A1", "about": "“METHOD FOR ASSAYING ACTION OF ANTITUMOR AGENT USING SPLICING DEFECTS AS INDEX” (Eisai R&D Management Co., Ltd., priority 2007, published 2010)", "test_system": "peripheral blood mononuclear cells (PBMC)", "test": "Microarray analysis (3), dose-dependent intron expression in PBMC at 3, 10, 30 nM, Table 5", "format": "cell-based, human", "description": "PBMC was suspended in RPMI1640 medium (containing 10% FBS, penicillin, and streptomycin) to 5×10^6 cells/ml and 1 ml of the suspension was plated per well of a 24-well plate. Immediately, 111 μl of 10 times-concentrated (8E,12E,14E)-7-((4-cycloheptylpiperazin-1-yl)carbonyl)oxy-3,6,16,21-tetrahydroxy-6,10,12,16,20-pentamethyl-18,19-epoxytricosa-8,12,14-trien-11-olide was added to the well (six wells per each concentration tested). The cells were then cultured in an incubator with 5% carbon dioxide gas at 37° C. Three hours later, the supernatant was collected and centrifuged at 1500 rpm for five minutes. TRI reagent (SIGMA) (1 ml) was added to each well of the plate from which the supernatant was removed to harvest the cells, which was added to the centrifuged pellet to dissolve. RNA was purified in accordance with the protocol of TRI reagent. RNA was further purified using RNeasy (QIAGEN) and, in accordance with the protocol, DNaseI was added to the samples during the procedure. Absorbance at 260 nm was measured to quantify an amount of RNA.\nRibosomal RNA was removed from 1 μg of each total RNA of control cells (n=3) and cells with the treatment (n=3) using RiboMinus Human/Mouse Transcriptome Isolation Kit (Invitrogen). Single stranded cDNA synthesis, double stranded cDNA synthesis, cRNA synthesis, second single stranded cDNA synthesis, cDNA fragmentation, and cDNA labeling in order were carried out for total RNA from which ribosomal RNA was removed, using GeneChip Whole Transcript Sense Target Labeling and Control Reagents (Affymetrix) to make a cDNA probe. Subsequently, the cDNA probe was used for hybridization with Human Exon 1.0 ST Array (Affymetrix). The array was washed and stained, and luminescence intensity was measured by a scanner.\nThe expression level of the probe set and the gene was quantified by using Expression Console Ver. 1.0 (Affymetrix) with Summarization Method and Normalization Method being set to “Median polish as used in RMA” and “None”, respectively. The expression level of the probe was normalized with that of the gene.\nProbe sets showing that the normalized change in the level expression of the probe set in the group with the treatment at 30 nM was more than 5 times; the expression level of the probe set and the gene in the group with the treatment at 30 nM was more than 100; and probe set annotation was “extended, full, free”, were picked out. Regression analysis was performed with the probe sets extracted for the control group, the group with the treatment at 3 nM, the group with the treatment at 10 nM, and the group with the treatment at 30 nM to determine a p and q value for the slope of regression formula. A gene containing the probe sets with the q value of less than 5% was determined as a candidate gene with increased expression level of the intron regions (Table 5).\nIn Table 5, for the gene evaluated, gene name (Gene Name), abbreviated name (Gene Symbol), accession number (Accession), alias name (Synonym), transcription cluster number in Human Exon 1.0 ST Array (Human Exon 1.0 ST Array Transcription Cluster ID), chromosome number (Chromosome), type of strand (Strand), start region (Start), stop region (Stop), and change in expression level per 1 nM (Fold Change/nM) were respectively shown.", "note": "Further values from the same series stand in other lists.", "data": [{"molecule": "CCC(O)C(C)C1OC1CC(C)(O)/C=C/C=C(\\C)C1OC(=O)CC(O)CCC(C)(O)C(OC(=O)N2CCN(C3CCCCCC3)CC2)/C=C/C1C", "note": "(centres unmarked) [E7107, (8E,12E,14E)-7-((4-cycloheptylpiperazin-1-yl)carbonyl)oxy-3,6,16,21-tetrahydroxy-6,10,12,16,20-pentamethyl-18,19-epoxytricosa-8,12,14-trien-11-olide]", "values": [{"measurement": "Fold Change/nM", "setting": "gene SH2B3 introns, regression over control, 3, 10, 30 nM", "result": 1.05, "unit": "nM⁻¹"}, {"measurement": "Fold Change/nM", "setting": "gene SH2D2A introns, regression over control, 3, 10, 30 nM", "result": 1.05, "unit": "nM⁻¹"}, {"measurement": "Fold Change/nM", "setting": "gene SLC2A3 introns, regression over control, 3, 10, 30 nM", "result": 1.05, "unit": "nM⁻¹"}, {"measurement": "Fold Change/nM", "setting": "gene SLC3A2 introns, regression over control, 3, 10, 30 nM", "result": 1.05, "unit": "nM⁻¹"}, {"measurement": "Fold Change/nM", "setting": "gene SLC38A1, intron expression, 3, 10, 30 nM", "result": 1.06, "unit": "nM⁻¹"}, {"measurement": "Fold Change/nM", "setting": "gene SMAD3 introns, regression over control, 3, 10, 30 nM", "result": 1.05, "unit": "nM⁻¹"}, {"measurement": "Fold Change/nM", "setting": "gene SMCHD1, intron expression, 3, 10, 30 nM", "result": 1.06, "unit": "nM⁻¹"}, {"measurement": "Fold Change/nM", "setting": "gene SMEK2 introns, regression over control, 3, 10, 30 nM", "result": 1.05, "unit": "nM⁻¹"}, {"measurement": "Fold Change/nM", "setting": "gene SMG7, intron expression, 3, 10, 30 nM", "result": 1.06, "unit": "nM⁻¹"}, {"measurement": "Fold Change/nM", "setting": "gene SMURF2, intron expression, 3, 10, 30 nM", "result": 1.06, "unit": "nM⁻¹"}, {"measurement": "Fold Change/nM", "setting": "gene SNRPB2 introns, regression over control, 3, 10, 30 nM", "result": 1.05, "unit": "nM⁻¹"}, {"measurement": "Fold Change/nM", "setting": "gene SOD2 // MGC5618, intron expression, 3, 10, 30 nM", "result": 1.06, "unit": "nM⁻¹"}, {"measurement": "Fold Change/nM", "setting": "gene SP110, intron expression, 3, 10, 30 nM", "result": 1.06, "unit": "nM⁻¹"}, {"measurement": "Fold Change/nM", "setting": "gene SPAG9, intron expression, 3, 10, 30 nM", "result": 1.06, "unit": "nM⁻¹"}, {"measurement": "Fold Change/nM", "setting": "gene SQSTM1 // OSIL introns, regression over control, 3, 10, 30 nM", "result": 1.05, "unit": "nM⁻¹"}, {"measurement": "Fold Change/nM", "setting": "gene SRPK2 introns, regression over control, 3, 10, 30 nM", "result": 1.05, "unit": "nM⁻¹"}, {"measurement": "Fold Change/nM", "setting": "gene STIM2 introns, regression over control, 3, 10, 30 nM", "result": 1.05, "unit": "nM⁻¹"}, {"measurement": "Fold Change/nM", "setting": "gene STK38L introns, regression over control, 3, 10, 30 nM", "result": 1.05, "unit": "nM⁻¹"}, {"measurement": "Fold Change/nM", "setting": "gene TARDBP, intron expression, 3, 10, 30 nM", "result": 1.06, "unit": "nM⁻¹"}, {"measurement": "Fold Change/nM", "setting": "gene TCF12, intron expression, 3, 10, 30 nM", "result": 1.06, "unit": "nM⁻¹"}, {"measurement": "Fold Change/nM", "setting": "gene TDRD7, intron expression, 3, 10, 30 nM", "result": 1.06, "unit": "nM⁻¹"}, {"measurement": "Fold Change/nM", "setting": "gene THRAP2 introns, regression over control, 3, 10, 30 nM", "result": 1.05, "unit": "nM⁻¹"}, {"measurement": "Fold Change/nM", "setting": "gene TMBIM4 introns, regression over control, 3, 10, 30 nM", "result": 1.05, "unit": "nM⁻¹"}, {"measurement": "Fold Change/nM", "setting": "gene TMOD3 introns, regression over control, 3, 10, 30 nM", "result": 1.05, "unit": "nM⁻¹"}, {"measurement": "Fold Change/nM", "setting": "gene TNKS2 introns, regression over control, 3, 10, 30 nM", "result": 1.05, "unit": "nM⁻¹"}, {"measurement": "Fold Change/nM", "setting": "gene TOP1, intron expression, 3, 10, 30 nM", "result": 1.06, "unit": "nM⁻¹"}, {"measurement": "Fold Change/nM", "setting": "gene TOP2B introns, regression over control, 3, 10, 30 nM", "result": 1.05, "unit": "nM⁻¹"}, {"measurement": "Fold Change/nM", "setting": "gene TSC22D3, intron expression, 3, 10, 30 nM", "result": 1.06, "unit": "nM⁻¹"}, {"measurement": "Fold Change/nM", "setting": "gene TTRAP introns, regression over control, 3, 10, 30 nM", "result": 1.05, "unit": "nM⁻¹"}, {"measurement": "Fold Change/nM", "setting": "gene TXNDC14 // CTNND1, intron expression, 3, 10, 30 nM", "result": 1.06, "unit": "nM⁻¹"}, {"measurement": "Fold Change/nM", "setting": "gene TXNL1 introns, regression over control, 3, 10, 30 nM", "result": 1.05, "unit": "nM⁻¹"}, {"measurement": "Fold Change/nM", "setting": "gene TXNRD1 introns, regression over control, 3, 10, 30 nM", "result": 1.05, "unit": "nM⁻¹"}, {"measurement": "Fold Change/nM", "setting": "gene UBAP1, intron expression, 3, 10, 30 nM", "result": 1.06, "unit": "nM⁻¹"}, {"measurement": "Fold Change/nM", "setting": "gene UBB // C17orf45, intron expression, 3, 10, 30 nM", "result": 1.06, "unit": "nM⁻¹"}, {"measurement": "Fold Change/nM", "setting": "gene UBE3A introns, regression over control, 3, 10, 30 nM", "result": 1.05, "unit": "nM⁻¹"}, {"measurement": "Fold Change/nM", "setting": "gene UBP1, intron expression, 3, 10, 30 nM", "result": 1.06, "unit": "nM⁻¹"}, {"measurement": "Fold Change/nM", "setting": "gene UBQLN1 // DIDO1 introns, regression over control, 3, 10, 30 nM", "result": 1.05, "unit": "nM⁻¹"}, {"measurement": "Fold Change/nM", "setting": "gene USP7, intron expression, 3, 10, 30 nM", "result": 1.06, "unit": "nM⁻¹"}, {"measurement": "Fold Change/nM", "setting": "gene USP9X // USP9Y, intron expression, 3, 10, 30 nM", "result": 1.05, "unit": "nM⁻¹"}, {"measurement": "Fold Change/nM", "setting": "gene USP36 introns, regression over control, 3, 10, 30 nM", "result": 1.05, "unit": "nM⁻¹"}, {"measurement": "Fold Change/nM", "setting": "gene VPS53 introns, regression over control, 3, 10, 30 nM", "result": 1.05, "unit": "nM⁻¹"}, {"measurement": "Fold Change/nM", "setting": "gene WAC introns, regression over control, 3, 10, 30 nM", "result": 1.05, "unit": "nM⁻¹"}, {"measurement": "Fold Change/nM", "setting": "gene WAPAL introns, regression over control, 3, 10, 30 nM", "result": 1.05, "unit": "nM⁻¹"}, {"measurement": "Fold Change/nM", "setting": "gene ZC3HAV1 introns, regression over control, 3, 10, 30 nM", "result": 1.05, "unit": "nM⁻¹"}, {"measurement": "Fold Change/nM", "setting": "gene ZFAND3, intron expression, 3, 10, 30 nM", "result": 1.06, "unit": "nM⁻¹"}, {"measurement": "Fold Change/nM", "setting": "gene ZNF207, intron expression, 3, 10, 30 nM", "result": 1.06, "unit": "nM⁻¹"}, {"measurement": "Fold Change/nM", "setting": "gene ZNF451 // KIAA1702, intron expression, 3, 10, 30 nM", "result": 1.06, "unit": "nM⁻¹"}, {"measurement": "Fold Change/nM", "setting": "intron expression of gene C1orf50 (cluster 2332767), slope over control, 3, 10, 30 nM", "result": 1.04, "unit": "nM⁻¹"}, {"measurement": "Fold Change/nM", "setting": "intron expression of gene C6orf94 // LTV1 (cluster 2929036), slope over control, 3, 10, 30 nM", "result": 1.04, "unit": "nM⁻¹"}, {"measurement": "Fold Change/nM", "setting": "intron expression of gene CCT6A (cluster 3003193), slope over control, 3, 10, 30 nM", "result": 1.04, "unit": "nM⁻¹"}, {"measurement": "Fold Change/nM", "setting": "intron expression of gene CD3D (cluster 3393744), slope over control, 3, 10, 30 nM", "result": 1.04, "unit": "nM⁻¹"}, {"measurement": "Fold Change/nM", "setting": "intron expression of gene CLEC5A (cluster 3076868), slope over control, 3, 10, 30 nM", "result": 1.04, "unit": "nM⁻¹"}, {"measurement": "Fold Change/nM", "setting": "intron expression of gene EIF3S9 (cluster 2987441), slope over control, 3, 10, 30 nM", "result": 1.04, "unit": "nM⁻¹"}, {"measurement": "Fold Change/nM", "setting": "intron expression of gene ELMO1 (cluster 3046197), slope over control, 3, 10, 30 nM", "result": 1.04, "unit": "nM⁻¹"}, {"measurement": "Fold Change/nM", "setting": "intron expression of gene FXR1 (cluster 2654394), slope over control, 3, 10, 30 nM", "result": 1.04, "unit": "nM⁻¹"}, {"measurement": "Fold Change/nM", "setting": "intron expression of gene GBP5 (cluster 2422035), slope over control, 3, 10, 30 nM", "result": 1.04, "unit": "nM⁻¹"}]}]}
